The chains behind the UniProt entries cited, without tags or fusion partners.
UniProt P32242: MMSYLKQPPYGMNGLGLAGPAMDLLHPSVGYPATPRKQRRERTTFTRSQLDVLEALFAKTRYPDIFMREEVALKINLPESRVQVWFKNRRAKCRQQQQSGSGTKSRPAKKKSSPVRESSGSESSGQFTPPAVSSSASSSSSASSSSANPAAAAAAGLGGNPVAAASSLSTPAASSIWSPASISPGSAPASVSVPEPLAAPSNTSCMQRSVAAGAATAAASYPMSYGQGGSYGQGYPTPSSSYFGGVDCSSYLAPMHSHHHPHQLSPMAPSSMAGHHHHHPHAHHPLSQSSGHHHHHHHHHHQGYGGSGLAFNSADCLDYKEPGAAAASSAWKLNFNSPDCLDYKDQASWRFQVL
UniProt O43186: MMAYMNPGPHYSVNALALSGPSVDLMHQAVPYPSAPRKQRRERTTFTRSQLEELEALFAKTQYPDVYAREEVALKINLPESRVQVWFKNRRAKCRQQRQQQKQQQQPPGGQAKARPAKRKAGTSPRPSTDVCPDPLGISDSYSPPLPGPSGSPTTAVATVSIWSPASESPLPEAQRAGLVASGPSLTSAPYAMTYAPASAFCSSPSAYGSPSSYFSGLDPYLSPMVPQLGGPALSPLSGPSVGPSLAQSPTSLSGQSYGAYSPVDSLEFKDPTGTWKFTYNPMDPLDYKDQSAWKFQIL
UniProt P32243: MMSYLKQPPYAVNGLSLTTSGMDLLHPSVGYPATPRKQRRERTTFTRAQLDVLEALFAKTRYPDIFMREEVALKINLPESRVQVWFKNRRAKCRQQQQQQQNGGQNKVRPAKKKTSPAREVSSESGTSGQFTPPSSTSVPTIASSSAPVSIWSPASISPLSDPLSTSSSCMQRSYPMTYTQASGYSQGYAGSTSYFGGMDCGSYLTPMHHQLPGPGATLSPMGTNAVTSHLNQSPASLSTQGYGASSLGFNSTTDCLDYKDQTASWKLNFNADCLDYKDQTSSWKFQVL
UniProt Q09472: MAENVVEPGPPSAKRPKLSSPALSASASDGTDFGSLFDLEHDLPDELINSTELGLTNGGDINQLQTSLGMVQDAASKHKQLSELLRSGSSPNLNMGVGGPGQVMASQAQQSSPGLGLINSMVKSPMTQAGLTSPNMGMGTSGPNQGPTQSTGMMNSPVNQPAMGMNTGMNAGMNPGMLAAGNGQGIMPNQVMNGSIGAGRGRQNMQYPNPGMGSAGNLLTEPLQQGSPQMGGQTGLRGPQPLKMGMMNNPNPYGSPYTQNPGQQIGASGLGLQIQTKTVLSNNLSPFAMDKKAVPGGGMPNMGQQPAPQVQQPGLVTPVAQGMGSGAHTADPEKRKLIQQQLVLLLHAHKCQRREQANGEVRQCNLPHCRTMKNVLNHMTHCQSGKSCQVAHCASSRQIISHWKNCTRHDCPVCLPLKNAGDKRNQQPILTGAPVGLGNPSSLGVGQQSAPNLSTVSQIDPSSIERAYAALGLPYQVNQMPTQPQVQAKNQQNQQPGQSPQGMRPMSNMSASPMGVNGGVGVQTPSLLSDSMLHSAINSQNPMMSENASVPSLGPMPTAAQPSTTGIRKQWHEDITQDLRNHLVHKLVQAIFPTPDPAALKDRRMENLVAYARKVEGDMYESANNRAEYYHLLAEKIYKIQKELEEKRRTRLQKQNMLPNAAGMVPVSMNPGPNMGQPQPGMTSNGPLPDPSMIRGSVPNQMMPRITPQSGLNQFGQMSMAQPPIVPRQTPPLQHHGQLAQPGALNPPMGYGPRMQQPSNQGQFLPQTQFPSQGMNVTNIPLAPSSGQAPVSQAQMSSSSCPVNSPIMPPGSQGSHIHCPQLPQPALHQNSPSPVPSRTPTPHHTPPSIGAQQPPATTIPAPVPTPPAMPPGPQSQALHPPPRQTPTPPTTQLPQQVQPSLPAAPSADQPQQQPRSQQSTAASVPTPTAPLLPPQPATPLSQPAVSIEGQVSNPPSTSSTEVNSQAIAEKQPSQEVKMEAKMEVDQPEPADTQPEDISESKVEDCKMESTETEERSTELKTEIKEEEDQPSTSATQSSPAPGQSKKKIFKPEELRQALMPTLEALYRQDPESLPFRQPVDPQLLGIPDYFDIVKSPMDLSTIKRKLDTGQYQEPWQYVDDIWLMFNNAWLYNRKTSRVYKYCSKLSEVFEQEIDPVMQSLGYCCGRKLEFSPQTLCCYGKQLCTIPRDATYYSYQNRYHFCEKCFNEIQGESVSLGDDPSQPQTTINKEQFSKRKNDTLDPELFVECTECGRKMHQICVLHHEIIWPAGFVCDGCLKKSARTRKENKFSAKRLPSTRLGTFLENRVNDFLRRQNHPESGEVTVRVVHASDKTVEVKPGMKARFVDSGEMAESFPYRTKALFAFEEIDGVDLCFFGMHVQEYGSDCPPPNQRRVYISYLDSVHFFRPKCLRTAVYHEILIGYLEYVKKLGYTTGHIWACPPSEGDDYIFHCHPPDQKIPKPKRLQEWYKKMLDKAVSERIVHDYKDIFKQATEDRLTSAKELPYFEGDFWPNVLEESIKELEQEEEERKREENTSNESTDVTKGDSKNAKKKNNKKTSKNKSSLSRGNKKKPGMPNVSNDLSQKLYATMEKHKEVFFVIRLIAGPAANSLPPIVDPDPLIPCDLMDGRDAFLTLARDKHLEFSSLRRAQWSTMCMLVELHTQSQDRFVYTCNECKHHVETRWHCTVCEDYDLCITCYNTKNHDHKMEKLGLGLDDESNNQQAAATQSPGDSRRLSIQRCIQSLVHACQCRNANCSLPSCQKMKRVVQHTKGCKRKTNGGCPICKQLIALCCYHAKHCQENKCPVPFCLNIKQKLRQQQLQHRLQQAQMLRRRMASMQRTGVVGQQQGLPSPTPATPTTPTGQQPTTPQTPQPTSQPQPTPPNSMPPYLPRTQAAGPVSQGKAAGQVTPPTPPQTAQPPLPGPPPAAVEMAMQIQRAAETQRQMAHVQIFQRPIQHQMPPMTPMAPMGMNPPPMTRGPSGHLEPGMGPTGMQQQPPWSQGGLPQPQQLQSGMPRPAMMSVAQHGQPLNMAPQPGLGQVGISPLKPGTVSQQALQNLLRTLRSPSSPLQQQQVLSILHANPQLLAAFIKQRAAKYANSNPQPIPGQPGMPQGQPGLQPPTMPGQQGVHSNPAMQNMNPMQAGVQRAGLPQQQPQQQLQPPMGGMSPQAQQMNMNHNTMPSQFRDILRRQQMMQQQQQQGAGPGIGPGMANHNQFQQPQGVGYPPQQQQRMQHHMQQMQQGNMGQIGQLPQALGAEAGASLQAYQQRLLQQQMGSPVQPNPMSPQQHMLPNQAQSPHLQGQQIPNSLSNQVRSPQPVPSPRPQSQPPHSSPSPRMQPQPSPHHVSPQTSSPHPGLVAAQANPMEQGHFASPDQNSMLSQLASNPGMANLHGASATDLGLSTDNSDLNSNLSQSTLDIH
UniProt O75362: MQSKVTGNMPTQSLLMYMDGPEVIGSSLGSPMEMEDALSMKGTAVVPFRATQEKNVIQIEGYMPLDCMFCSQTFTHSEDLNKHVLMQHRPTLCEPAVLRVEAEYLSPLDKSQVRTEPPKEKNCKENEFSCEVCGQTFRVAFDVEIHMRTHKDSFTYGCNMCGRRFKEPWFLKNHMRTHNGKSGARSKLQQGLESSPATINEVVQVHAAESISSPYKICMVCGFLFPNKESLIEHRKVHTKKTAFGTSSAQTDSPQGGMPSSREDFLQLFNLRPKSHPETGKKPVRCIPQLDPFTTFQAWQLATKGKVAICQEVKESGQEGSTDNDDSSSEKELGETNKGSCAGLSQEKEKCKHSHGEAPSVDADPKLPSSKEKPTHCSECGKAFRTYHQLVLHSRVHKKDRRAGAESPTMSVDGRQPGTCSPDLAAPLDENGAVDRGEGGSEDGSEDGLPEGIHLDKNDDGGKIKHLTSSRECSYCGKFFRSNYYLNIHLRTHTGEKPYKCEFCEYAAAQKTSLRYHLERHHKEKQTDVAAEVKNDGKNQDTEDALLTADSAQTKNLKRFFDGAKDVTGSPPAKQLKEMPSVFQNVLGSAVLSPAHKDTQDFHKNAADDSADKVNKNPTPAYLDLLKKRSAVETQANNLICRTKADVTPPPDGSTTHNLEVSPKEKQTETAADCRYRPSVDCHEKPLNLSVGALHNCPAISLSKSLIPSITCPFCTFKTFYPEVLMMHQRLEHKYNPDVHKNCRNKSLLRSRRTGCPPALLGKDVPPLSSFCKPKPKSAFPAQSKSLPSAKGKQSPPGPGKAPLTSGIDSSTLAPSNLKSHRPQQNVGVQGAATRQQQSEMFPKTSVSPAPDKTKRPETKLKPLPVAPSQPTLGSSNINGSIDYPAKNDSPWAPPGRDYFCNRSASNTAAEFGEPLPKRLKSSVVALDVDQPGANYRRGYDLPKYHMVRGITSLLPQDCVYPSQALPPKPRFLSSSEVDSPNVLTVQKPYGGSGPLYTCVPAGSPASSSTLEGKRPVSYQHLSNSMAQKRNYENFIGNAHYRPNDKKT

According to paper PMC10933267:

Legend:
[1] = biological target: T1, DPRX (human) (UniProt A6NFQ7); assay: proximity labelling; BioID-MS: MAC-tagged bait (BirA) in stable Flp-In T-REx 293 cells, tetracycline and 50 µM biotin for 24 h; lysate with Benzonase, sonicated; Strep-Tactin beads; LC-MS; high-confidence interactions by SAINTexpress BFDR < 0.01 and a GFP BioID contaminant database
T1 sequence: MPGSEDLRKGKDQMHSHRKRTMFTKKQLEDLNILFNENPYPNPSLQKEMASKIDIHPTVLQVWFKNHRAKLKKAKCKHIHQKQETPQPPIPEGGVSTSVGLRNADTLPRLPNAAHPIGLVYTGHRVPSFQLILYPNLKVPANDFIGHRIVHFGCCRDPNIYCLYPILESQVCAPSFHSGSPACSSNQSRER

[2] = biological target: OTX1 (human) (UniProt P32242); assay: as above
[3] = biological target: T2, ARGFX (human) (UniProt A6NJG6); assay: as above
T2 sequence: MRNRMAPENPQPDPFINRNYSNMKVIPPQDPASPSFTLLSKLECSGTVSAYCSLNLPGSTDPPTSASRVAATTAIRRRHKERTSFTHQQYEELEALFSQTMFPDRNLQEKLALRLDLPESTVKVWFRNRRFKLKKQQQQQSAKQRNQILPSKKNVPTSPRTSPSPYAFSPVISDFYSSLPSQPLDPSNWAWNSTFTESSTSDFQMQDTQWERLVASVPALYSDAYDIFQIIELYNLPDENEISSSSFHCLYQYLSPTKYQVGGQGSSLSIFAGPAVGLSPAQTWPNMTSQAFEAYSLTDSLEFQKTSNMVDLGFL

[4] = biological target: T3, TPRX2 (human) (UniProt P0DV77); assay: as above
T3 sequence: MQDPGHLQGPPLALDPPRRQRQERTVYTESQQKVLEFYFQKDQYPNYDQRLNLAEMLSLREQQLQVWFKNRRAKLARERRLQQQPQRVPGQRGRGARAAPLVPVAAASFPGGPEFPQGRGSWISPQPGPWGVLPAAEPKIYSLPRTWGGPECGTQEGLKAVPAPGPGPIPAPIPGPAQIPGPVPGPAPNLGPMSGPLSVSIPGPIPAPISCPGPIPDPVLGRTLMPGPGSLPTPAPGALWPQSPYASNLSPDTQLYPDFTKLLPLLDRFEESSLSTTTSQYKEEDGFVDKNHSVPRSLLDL

[5] = biological target: CRX (human) (UniProt O43186); assay: as above
[6] = biological target: T4, TPRX1 (human) (UniProt Q8N7U7); assay: as above
T4 sequence: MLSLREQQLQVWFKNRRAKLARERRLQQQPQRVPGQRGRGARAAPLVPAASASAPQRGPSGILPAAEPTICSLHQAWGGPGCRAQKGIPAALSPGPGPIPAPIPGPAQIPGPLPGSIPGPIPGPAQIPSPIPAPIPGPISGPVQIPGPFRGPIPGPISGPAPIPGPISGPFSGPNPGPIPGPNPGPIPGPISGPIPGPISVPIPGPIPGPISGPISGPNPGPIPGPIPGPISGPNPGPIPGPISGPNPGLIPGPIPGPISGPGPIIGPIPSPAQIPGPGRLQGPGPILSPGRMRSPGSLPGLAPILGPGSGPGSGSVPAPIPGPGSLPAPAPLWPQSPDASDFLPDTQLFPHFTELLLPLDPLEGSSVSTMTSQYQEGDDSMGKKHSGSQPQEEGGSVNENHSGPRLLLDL

[7] = biological target: OTX2 (human) (UniProt P32243); assay: as above
[8] = biological target: T5, ZSCAN4 (human) (UniProt Q8NAM6); assay: affinity purification with mass spectrometry; AP-MS: MAC-tagged bait in stable Flp-In T-REx 293 cells, 2 µg/ml tetracycline for 24 h; lysate (1% n-dodecyl beta-D-maltoside, 150 mM NaCl, pH 8.0) on Strep-Tactin beads, eluted with biotin; LC-MS; SAINTexpress BFDR < 0.01 and CRAPome filter
T5 sequence: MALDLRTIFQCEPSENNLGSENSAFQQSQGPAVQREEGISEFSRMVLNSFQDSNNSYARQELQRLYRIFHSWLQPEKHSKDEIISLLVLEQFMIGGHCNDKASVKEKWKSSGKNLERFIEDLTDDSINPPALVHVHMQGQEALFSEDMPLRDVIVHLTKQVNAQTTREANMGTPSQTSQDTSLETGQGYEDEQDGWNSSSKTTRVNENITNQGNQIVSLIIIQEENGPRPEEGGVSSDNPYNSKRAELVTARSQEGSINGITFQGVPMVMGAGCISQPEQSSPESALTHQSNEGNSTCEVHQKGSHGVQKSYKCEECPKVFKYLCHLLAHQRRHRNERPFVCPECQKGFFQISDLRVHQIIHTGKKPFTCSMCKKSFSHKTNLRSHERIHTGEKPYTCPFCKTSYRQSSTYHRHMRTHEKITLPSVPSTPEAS

[9] = biological target: EGR2 (human) (UniProt P11161); assay: proximity labelling; BioID-MS: MAC-tagged bait (BirA) in stable Flp-In T-REx 293 cells, tetracycline and 50 µM biotin for 24 h; lysate with Benzonase, sonicated; Strep-Tactin beads; LC-MS; high-confidence interactions by SAINTexpress BFDR < 0.01 and a GFP BioID contaminant database
[10] = biological target: T3, TPRX2 (human); assay: as above; remark: listed apart in the source
[11] = biological target: CRX (human) (UniProt O43186); assay: as above; remark: listed apart in the source
[12] = biological target: T6, DPPA3 (human) (UniProt Q6W0C5); assay: affinity purification with mass spectrometry; AP-MS: MAC-tagged bait in stable Flp-In T-REx 293 cells, 2 µg/ml tetracycline for 24 h; lysate (1% n-dodecyl beta-D-maltoside, 150 mM NaCl, pH 8.0) on Strep-Tactin beads, eluted with biotin; LC-MS; SAINTexpress BFDR < 0.01 and CRAPome filter
T6 sequence: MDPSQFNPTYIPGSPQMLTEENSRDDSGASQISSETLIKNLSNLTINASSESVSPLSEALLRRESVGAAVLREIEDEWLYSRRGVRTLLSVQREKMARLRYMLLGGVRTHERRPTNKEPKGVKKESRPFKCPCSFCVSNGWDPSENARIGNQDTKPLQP

## EP300 (from UniProt Q09472 1-2414)
[1]
  binding: no binding
[2]
  binding: binds
[3]
  binding: binds
[4]
  binding: binds
[5]
  binding: binds
[6]
  binding: binds
[7]
  binding: binds

## ZNF217 (from UniProt O75362 1-1048)
[8]
  binding: binds

B1: TRERF1 (protein, UniProt Q96PN7 1-1200)
chain: MGDQQLYKTNHVAHGSENLFYQQPPLGVHSGLNHNYGNAVTGGGMDAPQASPISPHFPQDTRDGLGLPVGSKNLGQMDTSRQGGWGSHAGPGNHVQLRGNLANSNMMWGAPAQAEPTDGYQYTYSQASEIRTQKLTSGVLHKLDSFTQVFANQNLRIQVNNMAQVLHTQSAVMDGAPDSALRQLLSQKPMEPPAPAIPSRYQQVPQQPHPGFTGGLSKPALQVGQHPTQGHLYYDYQQPLAQVPVQGGQPLQAPQMLSQHMQQMQQHQYYPPQQQQQAGQQRISMQEIQTQPQQIRPSQPQPPPQQQQPQQLQLQQRQGSMQIPQYYQPQPMMQHLQEQQQQQMHLQPPSYHRDPHQYTPEQAHTVQLIPLGSMSQYYYQEPQQPYSHPLYQQSHLSQHQQREDSQLKTYSSDRQAQAMLSSHGDLGPPDTGMGDPASSDLTRVSSTLPHRPLLSPSGIHLNNMGPQHQQLSPSAMWPQMHLPDGRAQPGSPESSGQPKGAFGEQFDAKNKLTCSICLKEFKNLPALNGHMRSHGGMRASPNLKQEEGEKVLPPQPQPPLPPPPPPPPPPQLPPEAESLTPMVMPVSVPVKLLPPKPSSQGFTNSTVAAPSARDKPASSMSDDEMPVLEIPRKHQPSVPKAEEPLKTVQEKKKFRHRPEPLFIPPPPSYNPNPAASYSGATLYQSQLRSPRVLGDHLLLDPTHELPPYTPPPMLSPVRQGSGLFSNVLISGHGPGAHPQLPLTPLTPTPRVLLCRSNSIDGSNVTVTPGPGEQTVDVEPRINIGLRFQAEIPELQDISALAQDTHKATLVWKPWPELENHDLQQRVENLLNLCCSSALPGGGTNSEFALHSLFEAKGDVMVALEMLLLRKPVRLKCHPLANYHYAGSDKWTSLERKLFNKALATYSKDFIFVQKMVKSKTVAQCVEYYYTWKKIMRLGRKHRTRLAEIIDDCVTSEEEEELEEEEEEDPEEDRKSTKEEESEVPKSPEPPPVPVLAPTEGPPLQALGQPSGSFICEMPNCGAVFSSRQALNGHARIHGGTNQVTKARGAIPSGKQKPGGTQSGYCSVKSSPSHSTTSGETDPTTIFPCKECGKVFFKIKSRNAHMKTHRQQEEQQRQKAQKAAFAAEMAATIERTTGPVGAPGLLPLDQLSLIKPIKDVDILDDDVVQQLGGVMEEAEVVDTDLLLDDQDSVLLQGDAEL
[9]
  binding: binds
[10]
  binding: binds
[11]
  binding: binds

B2: UHRF2 (protein, UniProt Q96PU4 1-802)
chain: MWIQVRTIDGSKTCTIEDVSRKATIEELRERVWALFDVRPECQRLFYRGKQLENGYTLFDYDVGLNDIIQLLVRPDPDHLPGTSTQIEAKPCSNSPPKVKKAPRVGPSNQPSTSARARLIDPGFGIYKVNELVDARDVGLGAWFEAHIHSVTRASDGQSRGKTPLKNGSSCKRTNGNIKHKSKENTNKLDSVPSTSNSDCVAADEDVIYHIQYDEYPESGTLEMNVKDLRPRARTILKWNELNVGDVVMVNYNVESPGQRGFWFDAEITTLKTISRTKKELRVKIFLGGSEGTLNDCKIISVDEIFKIERPGAHPLSFADGKFLRRNDPECDLCGGDPEKKCHSCSCRVCGGKHEPNMQLLCDECNVAYHIYCLNPPLDKVPEEEYWYCPSCKTDSSEVVKAGERLKMSKKKAKMPSASTESRRDWGRGMACVGRTRECTIVPSNHYGPIPGIPVGSTWRFRVQVSEAGVHRPHVGGIHGRSNDGAYSLVLAGGFADEVDRGDEFTYTGSGGKNLAGNKRIGAPSADQTLTNMNRALALNCDAPLDDKIGAESRNWRAGKPVRVIRSFKGRKISKYAPEEGNRYDGIYKVVKYWPEISSSHGFLVWRYLLRRDDVEPAPWTSEGIERSRRLCLRLQYPAGYPSDKEGKKPKGQSKKQPSGTTKRPISDDDCPSASKVYKASDSAEAIEAFQLTPQQQHLIREDCQNQKLWDEVLSHLVEGPNFLKKLEQSFMCVCCQELVYQPVTTECFHNVCKDCLQRSFKAQVFSCPACRHDLGQNYIMIPNEILQTLLDLFFPGYSKGR
[12]
  binding: binds

Read-outs that look alike come from different tables or passages of the source. These are yes or no findings as the source states them, for the method shown. In cells and extracts the contact can be indirect. A yes stands for co-enrichment or nearness to the bait. Other partners may have been found. For part of these data: No binding means not detected with the bait.
